# In US7256006B2, “Method for determining the influence of a test substance on the heart activity of a vertebrate” (Multi Channel Systems MCS GmbH, priority 2003, dated 2007):
# System: ventricular myocytes from chicken embryos
# Assay: extracellular MEA field potential (FPdur) measurement on spontaneously beating heart cells
# Format: cell-based
# Procedure: The heart muscle cells were obtained by trypsin digestion of the isolated ventricle of chicken embryos (10-12 days after fertilization). The heart was freed of blood vessels and atria. The cells were cultured in MEM medium supplemented with 10% fetal calf serum (FCS). One to two days before the measurement, the medium was replaced by standard Tyrode solution.
# The standard Tyrode solution was then replaced by a Tyrode solution with 5 μM of a test substance and the change in FPdur was determined. Thereafter, the concentration of the test substance was increased in logarithmic steps. A measurement was now taken every 10 minutes.
# In measurements with quinidine, 0.5% DMSO was added to the cell Tyrode since quinidine is not water-soluble. The control experiment was also carried out with DMSO here.
# In these qualitative evaluations, i.e. comparison of data from the respective control experiment and the data derived from addition of the QT-modifying substance, possible changes in the heart rate were taken into account.
# For the normalized case, the FPdur value was divided by the square root of the time span (in seconds) between two action potentials.
smiles,measurement,setting,value
Cc1cccc(CCN2CCC(C(=O)c3ccc(NS(C)(=O)=O)cc3)CC2)n1.Cl.Cl [E4031],spontaneous contractions of the cells,at higher concentrations,no longer have any spontaneous contractions
same,effect on the QT interval,summary of substances tested by the inventors,prolongating effect
